Test results: publication PMC11840411, “GS2 cooperates with IPA1 to control panicle architecture” (The New Phytologist, 2025)
Results are given in words; binding and its absence hold for the method and conditions named. Binding seen in cells or lysates may run through a third protein. Some results given as binding are weak or reduced against the parent protein; the word gives no strength. For some assays here: Tags and fused reporters may be left off the sequences shown.

T1: Flag-IPA1 (rice (Oryza sativa)) (UniProt Q7EXZ2)
T1 sequence: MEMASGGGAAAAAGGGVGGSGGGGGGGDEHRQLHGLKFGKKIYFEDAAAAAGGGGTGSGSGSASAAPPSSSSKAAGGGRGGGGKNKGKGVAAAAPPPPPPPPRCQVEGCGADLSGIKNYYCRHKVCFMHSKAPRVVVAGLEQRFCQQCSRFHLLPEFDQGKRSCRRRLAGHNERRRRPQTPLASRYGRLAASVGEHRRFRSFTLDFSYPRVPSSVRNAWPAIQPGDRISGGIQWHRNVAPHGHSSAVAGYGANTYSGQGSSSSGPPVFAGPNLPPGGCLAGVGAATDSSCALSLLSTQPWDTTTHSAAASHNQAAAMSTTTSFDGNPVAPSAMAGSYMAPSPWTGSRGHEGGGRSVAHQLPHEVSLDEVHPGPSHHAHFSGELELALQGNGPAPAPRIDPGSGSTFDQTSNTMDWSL

T2: IPA1-YN (rice (Oryza sativa)) (UniProt Q7EXZ2)
T2 sequence: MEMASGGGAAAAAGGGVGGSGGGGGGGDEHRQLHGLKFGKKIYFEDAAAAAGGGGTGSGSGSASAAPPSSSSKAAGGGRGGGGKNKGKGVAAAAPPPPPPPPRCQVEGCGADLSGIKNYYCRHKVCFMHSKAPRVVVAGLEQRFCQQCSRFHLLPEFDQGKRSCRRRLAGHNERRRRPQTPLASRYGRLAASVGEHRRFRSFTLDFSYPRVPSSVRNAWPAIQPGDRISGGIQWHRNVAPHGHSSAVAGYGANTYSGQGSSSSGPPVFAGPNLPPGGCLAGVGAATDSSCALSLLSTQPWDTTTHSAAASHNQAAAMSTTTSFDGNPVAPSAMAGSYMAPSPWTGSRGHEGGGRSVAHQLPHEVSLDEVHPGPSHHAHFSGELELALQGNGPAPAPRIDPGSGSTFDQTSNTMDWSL


Legend:
[1] = target: T1, Flag-IPA1 (rice (Oryza sativa)); assay: co-IP; HA-GS2 and Flag-IPA1 co-transformed into rice protoplasts for 24 h; extract incubated with Flag beads at 4°C for 2 h; 150 mM NaCl, 50 mM Tris-HCl pH 7.5; blots with Flag and HA antibodies
[2] = target: T2, IPA1-YN (rice (Oryza sativa)); assay: split reporter; BiFC; GS2-YC and IPA1-YN co-infiltrated into leaves of Nicotiana benthamiana; confocal microscopy

binding [1] | binding [2] | Binder
binds | – | HA-GS2 (protein, UniProt Q6ZIK5 1-394) MAMPYASLSPAVADHRSSPAAATASLLPFCRSTPLSAGGGGVAMGEDAPMTARWPPAAAARLPPFTAAQYEELEQQALIYKYLVAGVPVPPDLVLPIRRGLDSLAARFYNHPALGYGPYFGKKLDPEPGRCRRTDGKKWRCSKEAAPDSKYCERHMHRGRNRSRKPVETQLVAQSQPPSSVVGSAAAPLAAASNGSSFQNHSLYPAIAGSNGGGGGRNMPSSFGSALGSQLHMDNAAPYAAVGGGTGKDLRYTAYGTRSLADEQSQLITEAINTSIENPWRLLPSQNSPFPLSSYSQLGALSDLGQNTPSSLSKVQRQPLSFFGNDYAAVDSVKQENQTLRPFFDEWPKGRDSWSDLADENANLSSFSGTQLSISIPMASSDFSAASSRSTNGD
– | binds | GS2-YC (protein, UniProt Q6ZIK5 1-394) MAMPYASLSPAVADHRSSPAAATASLLPFCRSTPLSAGGGGVAMGEDAPMTARWPPAAAARLPPFTAAQYEELEQQALIYKYLVAGVPVPPDLVLPIRRGLDSLAARFYNHPALGYGPYFGKKLDPEPGRCRRTDGKKWRCSKEAAPDSKYCERHMHRGRNRSRKPVETQLVAQSQPPSSVVGSAAAPLAAASNGSSFQNHSLYPAIAGSNGGGGGRNMPSSFGSALGSQLHMDNAAPYAAVGGGTGKDLRYTAYGTRSLADEQSQLITEAINTSIENPWRLLPSQNSPFPLSSYSQLGALSDLGQNTPSSLSKVQRQPLSFFGNDYAAVDSVKQENQTLRPFFDEWPKGRDSWSDLADENANLSSFSGTQLSISIPMASSDFSAASSRSTNGD
